Measured values from article PMC10257657, “A flavin-monooxygenase catalyzing oxepinone formation and the complete biosynthesis of vibralactone” (Nature Communications, 2023).
No constants are given. Whether binding was seen depends on the method and setting. Some results given as binding are weak or reduced against the parent protein; the word gives no strength.

Biological target: VibO, NADPH/FAD-dependent monooxygenase (oxepinone-forming enzyme) of Boreostereum vibrans (Boreostereum vibrans)
Test: crystal structure; VibO in complex with FAD, sitting-drop vapor diffusion at 16 °C, 2.43 Å; four VibO molecules in the asymmetric unit forming two symmetric dimers; both purified

binding: binds
B1: VibO, NADPH/FAD-dependent monooxygenase (oxepinone-forming enzyme) of Boreostereum vibrans (enzyme, UniProt A0AA82WP17 1-653)
chain: MAAVENFEGYVEPELFERPGTSLPNKLGVMPQLTWPNVLNGTNCEKPAVPNYKPPSKVDVIIIGAGPVGLTTAACLLRQGITVRILDRSPHPLPVGRADGLQPRSMEVFDLLGLGEEVYHVGIRVEHTTVYKDGKQHIFAESHQAPGNEAHYTGLHACTQTEVEHLLIRDLIRHDILVERPCTATSYTFDEEADASVTHPITVNITNEATGAEEVVTARFLVGSDGAHSMIRKSLPIEFPGVKTDLHWGIVDAVINSDFPHRWTFGTVLNSEYGGCLIIPRERNMVRLYVQLRAEPGKAFDHSKWGPEEILVILNKVFAPYTLSYAEPVDWYTILTINERVATSFTYKDRIFLAGDSCHVHSAKGAFGMNTGVMDAHNLAWKLAMLCRGIAKPSLLASYDVERRENALRAVATSARYLRFVGNCTFQAIDGSGEVDKEADELVVPPGEDKDVFYFKKFVGQVGRFLIGLDVDYAENALNKLSPAVSRARAGYRASNPRVALSRSHSGRLYHSFGHLGQFTLLVFASNMGGALNAKLHALDSYLAGPSSFYHAYGGADTFKIVVVVRATPSQADQRVKTFPFLSKAGHTVYDDQLPLSHFGGDAHALYGVSHEEGAIVVVRPDSWIGTSSTISDARSLESYFDGFLFKSTEGSY
